# Results of single-concentration screens

Chains of the proteins cited; added tags and fusions are not shown. Residues count along the entry.
UniProt P9WFT3, whole entry: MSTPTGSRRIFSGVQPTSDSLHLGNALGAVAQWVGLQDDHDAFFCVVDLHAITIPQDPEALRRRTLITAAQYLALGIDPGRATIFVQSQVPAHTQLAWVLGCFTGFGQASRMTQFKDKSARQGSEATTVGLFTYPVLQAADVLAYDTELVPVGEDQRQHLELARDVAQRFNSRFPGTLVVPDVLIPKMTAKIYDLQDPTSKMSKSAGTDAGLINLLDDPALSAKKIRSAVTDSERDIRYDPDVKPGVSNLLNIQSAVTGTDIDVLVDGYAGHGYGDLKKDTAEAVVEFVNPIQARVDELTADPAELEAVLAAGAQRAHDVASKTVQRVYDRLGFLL
UniProt I6X8D2, whole entry: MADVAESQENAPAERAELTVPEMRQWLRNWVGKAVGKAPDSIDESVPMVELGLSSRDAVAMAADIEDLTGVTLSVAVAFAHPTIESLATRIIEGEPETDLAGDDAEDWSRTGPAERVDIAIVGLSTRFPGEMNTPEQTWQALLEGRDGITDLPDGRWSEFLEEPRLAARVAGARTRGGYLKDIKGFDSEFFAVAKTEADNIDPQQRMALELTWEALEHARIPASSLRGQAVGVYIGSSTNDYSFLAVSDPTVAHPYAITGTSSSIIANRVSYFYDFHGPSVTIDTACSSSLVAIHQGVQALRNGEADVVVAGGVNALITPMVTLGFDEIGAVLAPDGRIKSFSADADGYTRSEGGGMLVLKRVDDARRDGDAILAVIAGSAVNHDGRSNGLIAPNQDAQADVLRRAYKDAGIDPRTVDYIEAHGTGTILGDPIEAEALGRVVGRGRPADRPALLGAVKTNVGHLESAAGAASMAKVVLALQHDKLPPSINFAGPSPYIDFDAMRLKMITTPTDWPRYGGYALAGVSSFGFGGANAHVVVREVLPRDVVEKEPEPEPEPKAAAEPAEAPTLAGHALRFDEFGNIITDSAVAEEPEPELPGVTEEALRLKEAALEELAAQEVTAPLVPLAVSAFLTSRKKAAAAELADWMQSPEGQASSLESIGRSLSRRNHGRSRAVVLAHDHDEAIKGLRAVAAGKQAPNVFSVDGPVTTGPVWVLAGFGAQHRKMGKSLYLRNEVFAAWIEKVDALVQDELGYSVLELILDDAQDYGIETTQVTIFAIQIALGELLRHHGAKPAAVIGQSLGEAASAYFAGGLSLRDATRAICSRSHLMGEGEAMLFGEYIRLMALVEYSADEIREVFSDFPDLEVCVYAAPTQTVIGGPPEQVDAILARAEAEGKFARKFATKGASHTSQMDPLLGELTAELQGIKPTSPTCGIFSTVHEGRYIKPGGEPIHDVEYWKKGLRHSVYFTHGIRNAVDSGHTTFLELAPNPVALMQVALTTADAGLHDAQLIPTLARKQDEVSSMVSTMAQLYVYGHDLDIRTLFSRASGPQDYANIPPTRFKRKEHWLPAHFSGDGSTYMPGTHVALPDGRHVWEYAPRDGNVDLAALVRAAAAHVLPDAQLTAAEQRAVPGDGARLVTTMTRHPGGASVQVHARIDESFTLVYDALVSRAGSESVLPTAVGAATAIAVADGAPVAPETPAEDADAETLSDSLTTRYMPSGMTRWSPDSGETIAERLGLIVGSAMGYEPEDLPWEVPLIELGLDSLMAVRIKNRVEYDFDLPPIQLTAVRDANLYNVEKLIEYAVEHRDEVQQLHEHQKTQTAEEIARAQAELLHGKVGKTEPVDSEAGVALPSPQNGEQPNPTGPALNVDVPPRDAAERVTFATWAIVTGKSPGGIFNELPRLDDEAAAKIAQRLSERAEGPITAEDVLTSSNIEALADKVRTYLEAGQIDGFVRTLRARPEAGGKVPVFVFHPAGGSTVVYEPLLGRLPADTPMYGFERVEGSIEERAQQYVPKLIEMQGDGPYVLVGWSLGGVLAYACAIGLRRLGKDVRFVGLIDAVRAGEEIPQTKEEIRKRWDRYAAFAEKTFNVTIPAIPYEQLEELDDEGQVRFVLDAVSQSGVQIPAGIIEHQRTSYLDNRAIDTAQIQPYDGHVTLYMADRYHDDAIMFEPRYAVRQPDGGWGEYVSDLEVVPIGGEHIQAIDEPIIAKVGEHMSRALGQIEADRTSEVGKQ
UniProt A4I591, 1-473: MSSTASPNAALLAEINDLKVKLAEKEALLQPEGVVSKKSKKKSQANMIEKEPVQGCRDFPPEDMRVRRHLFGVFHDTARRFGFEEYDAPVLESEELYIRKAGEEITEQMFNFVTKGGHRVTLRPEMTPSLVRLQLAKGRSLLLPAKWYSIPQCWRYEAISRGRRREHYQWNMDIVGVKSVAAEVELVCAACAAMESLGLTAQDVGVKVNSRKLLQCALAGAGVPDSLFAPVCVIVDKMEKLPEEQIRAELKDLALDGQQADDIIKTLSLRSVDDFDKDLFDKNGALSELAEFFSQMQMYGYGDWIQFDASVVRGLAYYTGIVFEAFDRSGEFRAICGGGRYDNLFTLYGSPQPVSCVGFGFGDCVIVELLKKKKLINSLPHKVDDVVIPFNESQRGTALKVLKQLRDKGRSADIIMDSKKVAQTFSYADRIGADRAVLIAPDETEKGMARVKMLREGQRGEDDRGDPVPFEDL
UniProt Q8IDJ8, 1-583: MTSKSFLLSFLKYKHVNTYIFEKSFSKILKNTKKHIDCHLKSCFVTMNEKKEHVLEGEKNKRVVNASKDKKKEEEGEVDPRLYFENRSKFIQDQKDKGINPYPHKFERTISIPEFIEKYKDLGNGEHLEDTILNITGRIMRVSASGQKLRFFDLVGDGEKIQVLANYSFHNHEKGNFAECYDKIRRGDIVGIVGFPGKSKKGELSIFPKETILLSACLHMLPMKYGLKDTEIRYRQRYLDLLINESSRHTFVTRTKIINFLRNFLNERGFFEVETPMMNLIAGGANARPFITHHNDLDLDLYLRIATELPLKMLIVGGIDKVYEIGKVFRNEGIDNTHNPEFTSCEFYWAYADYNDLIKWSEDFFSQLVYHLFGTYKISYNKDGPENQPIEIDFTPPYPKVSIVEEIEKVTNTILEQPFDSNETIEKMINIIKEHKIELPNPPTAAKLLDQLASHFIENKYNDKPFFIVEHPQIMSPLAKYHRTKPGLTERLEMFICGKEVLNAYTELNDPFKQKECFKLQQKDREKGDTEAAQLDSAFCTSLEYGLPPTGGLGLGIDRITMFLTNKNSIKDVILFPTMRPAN

MtTrpRS: 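Enzyme assay of tryptophanyl-tRNA synthetase; the read-out is not stated. Target: Tryptophan-tRNA ligase, Mycobacterium tuberculosis (UniProt P9WFT3). Compounds at 10 µM. Higher most likely means stronger inhibition; the record gives no direction and few retests gave an IC50. About 65,000 compounds were tested under these conditions; 0.098% (about 64) showed 50% or more at least once.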
Pks13 thioesterase: 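Enzyme assay of the thioesterase domain of polyketide synthase 13; the read-out is not stated. Target: Polyketide synthase Pks13, Mycobacterium tuberculosis (UniProt I6X8D2). Concentration: 30 µM. Higher reads as stronger inhibition (inferred from which compounds were picked for retests). About 67,000 compounds were tested under these conditions; 0.46% (about 300) showed 50% or more at least once.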
LiHisRS: 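Histidine-tRNA ligase, Leishmania infantum (UniProt A4I591). Enzyme assay of histidyl-tRNA synthetase; the read-out is not stated. Compounds at 30 µM. Direction is inferred from retests: higher values go with stronger inhibition. The assay is labelled LdHisRS but filed under L. infantum. Of about 69,000 compounds tested this way, about 410 (0.6%) reached 50% or more in at least one test.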
PfKRS1: 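Enzyme assay of the cytosolic lysyl-tRNA synthetase in 384-well plates, read by luminescence. Target: Lysine-tRNA ligase, Plasmodium falciparum 3D7 (UniProt Q8IDJ8). Compounds at 30 µM. Direction is inferred from only a few compounds that gave an IC50; most scored high, so higher reads as stronger inhibition. Size under these conditions: about 69,000 compounds, about 49 of them at 50% or above in at least one test.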

The filed quantity is “Percent Effect” (%). How 0% and 100% were set is not recorded. Most values in the screen are low, and negative values occur. This is an unselected part of the compounds tested. A dash means the value is not listed here; it may have been measured.

| # | structure | MtTrpRS | Pks13 thioesterase | LiHisRS | PfKRS1 |
|---|---|---|---|---|---|
| 1 | `O=C1[C@@H]2CCN(Cc3ccc(F)cc3)C[C@@H]2OCCN1c1cccnc1` | 0.3526 | -13.99 | 14.53 | 2.937 |
| 2 | `CCN1CCN(c2ccc(F)cc2C(C)NCc2cscn2)CC1` (stereo not drawn) | -2.199 | -28.65 | 9.836 | 2.058 |
| 3 | `COc1ccc(CN2C[C@H]3CCC[C@@H](CN(C)C)[C@H]3C2)cn1` | -8.533 | -31.43 | 11.11 | 2.098 |
| 4 | `O=C(O)CCn1nc(C(F)(F)F)c(Cl)c1C1CC1` | 1.763 | -4.402 | 10 | 2.054 |
| 5 | `O=C(Cn1cnnn1)Nc1ccc(F)cc1OCC1CC1` | -4.933 | -27.89 | 12.9 | 4.613 |
| 6 | `CN(C(=O)[C@H]1CSCN1C(=O)OC(C)(C)C)C1CC1` | 1.928 | 10.37 | 27.16 | 0.8079 |
| 7 | `CC(C)(C)c1n[nH]c(C2CN(C(=O)CCC3CC3)CCO2)n1` (stereo not drawn) | -1.262 | -14.01 | 2.128 | 5.861 |
| 8 | `C1CCC(c2nn3c(C4CCCO4)nnc3s2)C1` (stereo not drawn) | 3.289 | -14.84 | 6.993 | -0.1397 |
| 9 | `COCCN(C)CC1CCCN1S(=O)(=O)c1cccc(F)c1F` (stereo not drawn) | -1.312 | - | 4.762 | 2.938 |
| 10 | `Cc1nc(C)n(C2CCCN(C(=O)c3cn4c(C)cccc4n3)C2)n1` (stereo not drawn) | -1.221 | -1.672 | -8.264 | -10.14 |
| 11 | `COCc1cncc2c1CCN(C(=O)c1ccc(C)o1)C2` | -0.7345 | -5.714 | 15.09 | -1.519 |
| 12 | `CCOC1CCCN(C(=O)c2cnc3c(cnn3C3CCCC3)c2)C1` (stereo not drawn) | -4.642 | -24.76 | -1.124 | 2.595 |
| 13 | `COCC(C)NCc1nc(-c2ccc(C)cc2)c(-c2ccccn2)[nH]1` (stereo not drawn) | -3.028 | -32.08 | 14.29 | 1.557 |
| 14 | `CC(C)OCCn1nnnc1Cc1ccc(Br)cc1` | 1.11 | -30.9 | 18.31 | 1.871 |
| 15 | `CN(Cc1cc(C(C)(C)C)n[nH]1)C(=O)CCC(=O)NC1CCCC1` | -1.652 | 6.852 | 3.226 | -1.051 |
| 16 | `CC(C)NC(=O)N1CCN(c2ccc(Cl)nn2)C(=O)C1` | -1.296 | -6.343 | 4.138 | 1.611 |
| 17 | `COc1cc(F)ccc1NC(=O)NC(C)C(=O)NC(C)(C)C` (stereo not drawn) | -0.08211 | -42.74 | 9.302 | 1.338 |
| 18 | `Cc1ccc(C(=O)NCCC(C)C)cc1NS(C)(=O)=O` | 0.6173 | -12.18 | -2.222 | -0.2836 |
| 19 | `CC(C)N(CCS(C)(=O)=O)Cc1csc(Cc2ccc(Cl)cc2)n1` | -3.997 | 10.12 | 4.255 | -3.086 |
| 20 | `COCc1cc(CC2(NC3CCN(C)CC3)COC2)no1` | -1.022 | 0.3604 | 0 | -1.764 |
| 21 | `Cc1cc(C)n(CC2CCCN2C(=O)c2cnccn2)n1` (stereo not drawn) | 19.55 | -3.413 | 8.772 | -1.887 |
| 22 | `Cc1nc2cc(=O)[nH]n2c(C)c1CC(=O)Nc1cnn(C(C)(C)C)c1` | -0.5727 | -5.337 | 11.83 | 4.278 |
| 23 | `COc1cc(C)c(C(C)NC(=O)c2cccnc2N(C)C)cc1OC` (stereo not drawn) | -4.107 | -9.134 | 10.96 | 4.17 |
| 24 | `CCN1CCCC1CNC(=O)CCc1cccs1` (stereo not drawn) | -1.874 | -23.28 | 9.375 | 3.156 |
| 25 | `Cc1noc(C)c1CN1C[C@@H]2COC[C@@H](C(=O)N3CCCCO3)[C@@H]2C1` | -3.284 | 6.289 | 20 | 2.687 |
| 26 | `CCOc1ncnc2c1CCN(C(=O)c1cnccn1)CC2` | -6.041 | -9.324 | 19.44 | -1.569 |
| 27 | `O=C1CC(NCc2ccccn2)CN1CCc1ccc(F)cc1` (stereo not drawn) | -3.06 | -8.454 | 3.279 | -3.794 |
| 28 | `Cc1cc2c(=O)n3c(nc2s1)CCN(C(=O)c1nn(C)cc1Cl)CC3` | -9.725 | 2.531 | 2.069 | 1.216 |
| 29 | `CCc1nc(CCNC(=O)Nc2ccc(C(=O)NC)cc2C)cs1` | -0.5329 | -14.92 | 0.9709 | -0.5117 |
| 30 | `CC(=O)c1c(C)nn(S(=O)(=O)c2ccc(C)c(C)c2)c1C` | -3.087 | -1.202 | 19.64 | 3.062 |
| 31 | `Clc1cc(CN2CCCC(Cn3cncn3)C2)c2ncccc2c1` (stereo not drawn) | -4.724 | 16.85 | 13.98 | -1.613 |
| 32 | `CCCS(=O)(=O)N1CCCC1c1cccc(N(C)C)c1` (stereo not drawn) | -7.327 | -34.32 | 14.29 | -2.711 |
| 33 | `CNC(=O)C1(C)CCCN(c2cnccn2)C1` (stereo not drawn) | -2.824 | 7.031 | 11.72 | 1.337 |
| 34 | `Cc1nn(C)c(C)c1S(=O)(=O)N1CC[C@H]2O[C@@H](C)C[C@H]2C1` | -4.651 | -32.91 | 15.38 | 5.381 |
| 35 | `CCc1nn(-c2cc(Oc3cc(C)ccc3C)nc(C)n2)c(N)c1C#N` | 1.55 | -14.17 | 19.54 | -0.3201 |
| 36 | `Cc1cc(C)c(CNC(=O)N2CCC(N3CCCC3)CC2)c(=O)[nH]1` | -1.644 | -1.601 | 17.74 | 14.23 |
| 37 | `O=C(COc1ccccc1)NS(=O)(=O)Cc1ccccc1` | 1.679 | -31.19 | 14.29 | 5.198 |
| 38 | `CSCC(CCO)NC(=O)Nc1cc(C)ccc1C` (stereo not drawn) | 1.924 | -10.06 | 9.615 | -0.2202 |
| 39 | `COc1ccc(N2Cc3n[nH]c(=O)n3C2=O)cc1` | -3.205 | -8.451 | 0 | -0.9659 |
| 40 | `OC[C@H]1CC[C@]2(CC1)CN(Cc1ccsc1)Cc1ccccc1O2` | - | 12.63 | 16.49 | 4.355 |
| 41 | `O=C(COc1ccccc1)N1CCC[C@]2(C[C@@H](OCC3CC3)CO2)C1` | -1.036 | -37.18 | 9.735 | 4.575 |
| 42 | `Cc1noc(C)c1CN1CC2(CCN(C(=O)c3cccn3C)C2)CC1=O` (stereo not drawn) | 4.043 | -12.5 | -13.51 | 9.585 |
| 43 | `O=C(NC1(C(=O)NC2CCCC2)CCCC1)c1ccc2[nH]ncc2c1` | -3.641 | -7.324 | 19.18 | 3.222 |
| 44 | `O=C(c1ccnnc1)N1C[C@H](OCC2CC2)[C@H]2COC[C@H]21` | -2.79 | -5.132 | 16.36 | 4.28 |
| 45 | `Cn1c(=O)cc(C(=O)NC(Cc2ccsc2)c2cccnc2)[nH]c1=O` (stereo not drawn) | -5.386 | -40.68 | 5.674 | 1.037 |
| 46 | `CCc1ncc2c(n1)CN(Cc1nnc(CC)o1)CC2` | 5.527 | -0.4175 | 4.938 | 2.067 |
| 47 | `CCOc1nnc(CN2CCC(N(C)Cc3noc(C)n3)C2)s1` (stereo not drawn) | -1.657 | -3.874 | 22.73 | 7.54 |
| 48 | `CCn1cnnc1CN(C)Cc1nc(-c2cc(OC)ccc2F)oc1C` | -0.8158 | 3.622 | 18.07 | 8.061 |
| 49 | `Cc1nc(CNC2CC(=O)N(CCc3cccc(Cl)c3)C2)c[nH]1` (stereo not drawn) | -0.7656 | 0.3835 | 3.191 | 2.168 |
| 50 | `O=C(Cc1ccc2c(c1)OCCO2)N1CCCC(n2ccnc2)C1` (stereo not drawn) | 0.2346 | -45.65 | 18.67 | 9.007 |
| 51 | `CCCC(C(=O)NCCc1nc(C)cs1)N(C)C` (stereo not drawn) | -2.679 | -9.606 | 4.464 | 7.274 |
| 52 | `CC(C)OCCCN(CC(=O)N1CCNCC1)C(=O)c1ccc(F)cc1` | 1.568 | 16.05 | 31.58 | 3.273 |

The values are deposited in ChEMBL (CHEMBL3988442, “University of Dundee, Small-Polar-MMV Screening Library” (2021)).